Data published in article PMC4664883, “Selective targeting of nuclear receptor FXR by avermectin analogues with therapeutic effects on nonalcoholic fatty liver disease” (Scientific Reports, 2015).

The chains behind the UniProt entries cited, without tags or fusion partners. Where a name states a change or a piece, a line headed by the entry shows the natural chain unless it says otherwise.
UniProt Q96RI1: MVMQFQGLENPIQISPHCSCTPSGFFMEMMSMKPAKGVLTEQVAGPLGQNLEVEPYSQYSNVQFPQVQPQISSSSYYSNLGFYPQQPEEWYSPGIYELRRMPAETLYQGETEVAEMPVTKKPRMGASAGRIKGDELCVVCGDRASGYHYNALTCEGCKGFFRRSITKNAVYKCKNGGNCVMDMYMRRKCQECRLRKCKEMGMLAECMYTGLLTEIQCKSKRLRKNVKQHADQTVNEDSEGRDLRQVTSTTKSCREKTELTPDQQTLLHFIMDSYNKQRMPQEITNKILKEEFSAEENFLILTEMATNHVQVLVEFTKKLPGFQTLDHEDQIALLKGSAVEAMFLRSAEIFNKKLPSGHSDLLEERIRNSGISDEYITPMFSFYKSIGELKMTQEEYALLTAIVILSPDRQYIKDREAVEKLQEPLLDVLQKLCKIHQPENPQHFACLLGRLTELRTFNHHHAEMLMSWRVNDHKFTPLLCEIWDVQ

Biological target: his-tagged FXR ligand binding domain (LBD) (UniProt Q96RI1)
Assay: AlphaScreen or HTRF; His-tagged FXR LBD with N-terminally biotinylated cofactor peptide, hexahistidine detection kit; with ivermectin, doramectin or abamectin as the FXR ligand (0.5 μM in Fig. 4a); both purified

binding: binds
Binder: GHSFADPASNLGLEDIIRKALMGSF (N-terminal biotinylation) [biotin-NCoR-2 peptide (nuclear receptor corepressor, motif 2)]

No constants are given. Whether binding was seen depends on the method and setting. Binding can be weak; no strength is given.
